Results published in PubChem BioAssay AID2685 (National Center for Advancing Translational Sciences (NCATS), 2010).
The list shows a part of the results. These are further read-outs of the screen, such as a control signal, another cell line or another target. No call is given for them. The list favours compounds with an active or inconclusive main result. Potencies come from curve fits of mixed quality, noted in brackets.

Assay: qHTS Assay for Lipid Storage Modulators in Drosophila S3 Cells;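 for cell number change: cells counted by Cell Tracker Red CMTPX staining in the red channel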
Settings: BODIPY lipid droplet fluorescence, 18-24 h; for cell number change: measured here: cell count max response, cells fed with added oleic acid
Summary of the method: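 Drosophila S3 cells loaded with oleic acid (400 uM, as added) and compounds at several concentrations; lipid droplets imaged by 488-nm laser-scanning cytometry, 500–530 nm intensity and object ratio to cell channel. Percent activity normalized to 20 uM Triacsin C.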

[1] = measured here: cell number channel AC50, cells fed with added oleic acid
[2] = measured here: lipid fluorescence (Fed channel) AC50, cells fed with added oleic acid

With `O=C1CC(C(=O)Nc2ccc(F)cc2)n2cnnc2N1` (stereo not drawn) the cell number change was -38%, the AC50 [1] was 0.259 µM [falling, full curve, poor fit] and the AC50 [2] was 0.103 µM [falling, full curve].
With `Cc1ccc(-c2ccc(S(=O)(=O)N3CCN(C)CC3)cc2)cc1` the cell number change was -29.2% and the AC50 [1] was 0.00461 µM [falling, full curve, poor fit].
`CC(C)Oc1ccc(CCc2n[nH]c(=S)n2Cc2ccccc2)cc1` gave a cell number change of -45.8%.
In the case of `CC(=O)c1cccc(NC(=O)CCC(=O)c2ccc(F)cc2)c1`, the cell number change is reported as -2.78% and the AC50 [2] is reported as 0.58 µM [rising, single point].
For `CCCCn1c(N)c(N(CCOC)C(=O)CSc2nnc(-c3ccncc3)n2CCC)c(=O)[nH]c1=O`, the cell number change was -20.4% and the AC50 [2] was 29.1 µM [falling, single point].
`O=C(Cn1cnc2ccccc2c1=O)NCc1cccs1` gave a cell number change of 6.92%.
For `COc1ccc(S(=O)(=O)C(C#N)c2nc3ccccc3nc2N2CCC(C)CC2)cc1` (stereo not drawn), the cell number change was 17.1% and the AC50 [2] was 0.651 µM [rising, full curve, poor fit].
In the case of `Cc1ccc(S(=O)(=O)N2CCCC(C(=O)NCCCN3CCCCC3C)C2)cc1` (stereo not drawn), the cell number change is reported as 176%.
With `CCOc1ccc(N2C(=O)/C(=C/c3ccc(C)o3)N(C)C2=S)cc1` the cell number change was 35.8%, the AC50 [1] was 25.9 µM [rising, single point] and the AC50 [2] was 16.4 µM [falling, partial curve, poor fit].
For `CCCCC1CCc2[nH]nc(C(=O)O)c2C1` (stereo not drawn), the cell number change was -7.66% and the AC50 [2] was 23.1 µM [rising, single point].
In the case of `CCN(CC)S(=O)(=O)c1ccc(N2CCCC2)c(NC(=O)Cc2c(F)cccc2Cl)c1`, the cell number change is reported as 14.1% and the AC50 [1] is reported as 0.164 µM [rising, full curve, poor fit].
For `CC(C)C1=C2OC(N)=C(C#N)C(C#N)=C2C(C)CC1` (stereo not drawn), the cell number change was -9.55% and the AC50 [2] was 0.00411 µM [falling, full curve, poor fit].
For `O=C(CN(C(=O)c1cc2c(s1)CCC2)C1CCCC1)NCc1cccs1`, the cell number change was -16.1% and the AC50 [2] was 0.731 µM [falling, full curve, poor fit].
With `COc1ccc(NC(=O)CSc2ccc(-c3sc(C)nc3C)nn2)cc1` the cell number change was 6.94% and the AC50 [2] was 0.231 µM [rising, full curve].
In the case of `Cc1nc2c3c(-c4ccccc4)c(-c4ccccc4)oc3ncn2n1`, the AC50 [2] is reported as 4.11 µM [falling, partial curve, poor fit].
In the case of `COCCn1c(=NC(=O)CCS(=O)(=O)c2ccccc2)sc2c(OC)ccc(OC)c21`, the cell number change is reported as 4.25% and the AC50 [1] is reported as 0.0058 µM [falling, full curve, poor fit].
In the case of `CCOc1ccc(CNC(=O)C(=O)c2cn(CC(=O)N3CCOCC3)c3ccccc23)cc1OC`, the cell number change is reported as 1.14% and the AC50 [2] is reported as 32.6 µM [falling, partial curve, poor fit].
For `Cc1ccc(NC(=O)Cn2nc(C)c3ccccc3c2=O)cc1F`, the cell number change was 7.93% and the AC50 [2] was 3.26 µM [rising, full curve].
For `CCC(=O)Oc1c(C(=O)CC)cc2c(C)cc(=O)oc2c1C`, the cell number change was -1.69% and the AC50 [2] was 3.26 µM [falling, single point].
With `Nc1ncnc2c1c(-c1ccc(Oc3ccccc3)cc1)cn2C1CCCC1` the cell number change was -26.9%.
For `OCCN1CCOCCN(CCO)CCOCC1`, the cell number change was -5.01% and the AC50 [2] was 16.4 µM [falling, partial curve].
With `CN(C)CCOC(=O)c1ccc(COc2ccccc2Br)o1` the cell number change was 24.3% and the AC50 [2] was 32.6 µM [rising, partial curve].
With `O=C(O)c1ccccc1/C=N/NC(=O)C1CCCC1` the cell number change was 28.7% and the AC50 [2] was 29.1 µM [rising, single point].
With `COc1ccc(NC(=O)CCN2CCN(S(=O)(=O)c3ccc(C(C)C)cc3)CC2)cc1` the cell number change was 82.7% and the AC50 [1] was 23.1 µM [rising, single point].
`O=S(=O)(c1ccc(S(=O)(=O)N(Cc2ccc(F)cc2)C2CCCC2)cc1)N1CCCC1` gave a cell number change of -1.94%.
In the case of `O=C(COC(=O)c1ccccn1)Nc1nccs1`, the cell number change is reported as -15% and the AC50 [1] is reported as 0.116 µM [falling, full curve].
Work on `CC(C)c1ccc(OCC(=O)NC2CC(C)(C)NC(C)(C)C2)c(Br)c1` yielded a cell number change of 21.1%.
With `COc1ccc(C2CC(c3ccc4ccccc4c3OC(C)=O)=NN2C(C)=O)cc1` (stereo not drawn) the cell number change was -2.21% and the AC50 [2] was 6.51 µM [rising, single point].
In the case of `COc1cc(C(=O)NCCOc2cc(C)ccc2C(C)C)cc(OC)c1OC`, the cell number change is reported as -44.7%, the AC50 [1] is reported as 18.4 µM [falling, partial curve] and the AC50 [2] is reported as 6.51 µM [falling, partial curve, poor fit].
In the case of `O=C(CSc1nnc2ccccn12)NNC(=O)c1ccc(Br)cc1`, the AC50 [2] is reported as 0.517 µM [rising, partial curve].
In the case of `COc1ccc(C(C)=O)cc1COC(=O)C(CO)NS(=O)(=O)c1ccc(Br)cc1` (stereo not drawn), the AC50 [1] is reported as 0.82 µM [rising, single point].
For `CCc1cc(C(=O)N2CCCC(CO)(Cc3ccc(F)cc3)C2)n(C)n1` (stereo not drawn), the cell number change was -36.1% and the AC50 [1] was 29.1 µM [falling, partial curve, poor fit].
In the case of `Cc1ccccc1-n1nc(C)c2cc(C(=O)NCc3cccnc3)sc21`, the AC50 [1] is reported as 1.3 µM [rising, full curve].
For `NC1=NC(=O)/C(=C/c2ccc(-c3ccc(S(N)(=O)=O)cc3)o2)S1`, the cell number change was 75.7% and the AC50 [1] was 18.4 µM [rising, single point].
`CC(C)(C)NC(=O)Cn1nnnc1-c1nonc1N` gave a cell number change of 4.06%.
For `O=C(CSc1nnc(CNc2ccccc2)o1)N1CCc2ccccc21`, the cell number change was 3.52% and the AC50 [2] was 13 µM [rising, single point].
In the case of `O=C(N/N=C/c1cc(Br)c(O)c(Br)c1)c1cc2c(ccc3ccccc32)o1`, the cell number change is reported as -46.7% and the AC50 [1] is reported as 20.6 µM [falling, partial curve, poor fit].
For `CCc1ccnc(NS(=O)(=O)c2ccc3c(c2)CCO3)c1`, the cell number change was -2.25% and the AC50 [2] was 32.6 µM [falling, single point].
`Cc1ccc(C)c(NC(=S)NC(C)C(c2ccccc2)N2CCN(C)CC2)c1` (stereo not drawn) gave a cell number change of 12.3%.
With `CCOc1ccc2nc(C(=O)N3CCCC(C)C3)sc2c1` (stereo not drawn) the cell number change was -48.2% and the AC50 [1] was 16.4 µM [falling, single point].
`O=C(O)C1(c2ccccc2)CCN(S(=O)(=O)c2cccc(Cl)c2)CC1` gave a cell number change of 4.76%.
In the case of `Cc1cc(NC(=O)NC2CC(=O)N(c3ccc4c(c3)OCCO4)C2)no1` (stereo not drawn), the AC50 [2] is reported as 0.411 µM [falling, full curve, poor fit].
